In PMC8486878 one finds binding data, which are given here for one molecule.

Chains of the proteins cited; added tags and fusions are not shown. Residues count along the entry.
UniProt P05161, residues 1-157: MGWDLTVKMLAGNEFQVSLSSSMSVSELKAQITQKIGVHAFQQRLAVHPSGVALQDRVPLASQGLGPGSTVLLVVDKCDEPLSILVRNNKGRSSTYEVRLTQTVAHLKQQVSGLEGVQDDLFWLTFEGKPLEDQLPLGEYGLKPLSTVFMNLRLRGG

Results are given in words; binding and its absence hold for the method and conditions named. In cells and extracts the contact can be indirect. Sequences can lack the tags named with a protein.

For the assay, the target named is GST-tagged ISG15 (UniProt P05161). The assay can be described thus: pull-down; GST-tagged UBL (ISG15, SUMO1 or ubiquitin) on magnetic glutathione beads mixed with a lysate of transfected HEK293T cells, overnight 4 °C, three washes in 50 mM Tris.HCl pH 8.0, 150 mM NaCl, 1% triton-x-100; immunoblot against FLAG and GST; only the target purified. (In general: In western blotting, separated proteins are transferred to a membrane and probed.)

B1: complementary C-terminal fragment of RNF213 (FLAG-C-domain-RNF213) (domain or fragment, UniProt Q63HN8 3998-5207)
chain: SICLGDAKDPVCLPCDHVHCLRCLRAWFASEQMICPYCLTALPDEFSPAVSQAHREAIEKHARFRQMCNSFFVDLVSTICFKDNAPPEKEVIESLLSLLFVQKGRLRDAAQRHCEHTKSLSPFNDVVDKTPVIRSVILKLLLKYSFHDVKDYIQEYLTLLKKKAFITEDKTELYMLFINCLEDSILEKTSAYSRNDELNHLEEEGRFLKAYSPASRGREPANEASVEYLQEVARIRLCLDRAADFLSEPEGGPEMAKEKQCYLQQVKQFCIRVENDWHRVYLVRKLSSQRGMEFVQGLSKPGRPHQWVFPKDVVKQQGLRQDHPGQMDRYLVYGDEYKALRDAVAKAVLECKPLGIKTALKACKTPQSQQSAYFLLTLFREVAILYRSHNASLHPTPEQCEAVSKFIGECKILSPPDISRFATSLVDNSVPLLRAGPSDSNLDGTVTEMAIHAAAVLLCGQNELLEPLKNLAFSPATMAHAFLPTMPEDLLAQARRWKGLERVHWYTCPNGHPCSVGECGRPMEQSICIDCHAPIGGIDHKPRDGFHLVKDKADRTQTGHVLGNPQRRDVVTCDRGLPPVVFLLIRLLTHLALLLGASQSSQALINIIKPPVRDPKGFLQQHILKDLEQLAKMLGHSADETIGVVHLVLRRLLQEQHQLSSRRLLNFDTELSTKEMRNNWEKEIAAVISPELEHLDKTLPTMNNLISQDKRISSNPVAKIIYGDPVTFLPHLPRKSVVHCSKIWSCRKRITVEYLQHIVEQKNGKERVPILWHFLQKEAELRLVKFLPEILALQRDLVKQFQNVQQVEYSSIRGFLSKHSSDGLRQLLHNRITVFLSTWNKLRRSLETNGEINLPKDYCSTDLDLDTEFEILLPRRRGLGLCATALVSYLIRLHNEIVYAVEKLSKENNSYSVDAAEVTELHVISYEVERDLTPLILSNCQYQVEEGRETVQEFDLEKIQRQIVSRFLQGKPRLSLKGIPTLVYRHDWNYEHLFMDIKNKMAQDSLPSSVISAISGQLQSYSDACEVLSVVEVTLGFLSTAGGDPNMQLNVYTQDILQMGDQTIHVLKALNRCQLKHTIALWQFLSAHKSEQLLRLHKEPFGEISSRYKADLSPENAKLLSTFLNQTGLDAFLLELHEMIILKLKNPQTQTEERFRPQWSLRDTLVSYMQTKESEILPEMASQFPEEILLASCVSVWKTAAVLKWNREMR
Regarding B1, the binding result is “no binding”.
